Data as given in publication PMC4161973.
Results are given in words; binding and its absence hold for the method and conditions named. Sequences can lack the tags named with a protein.

Assays:
[1] = biological target: T1, GST-tagged Nmd5 (S. cerevisiae) (UniProt P46970); test: pull-down; GST-importins immobilised on Glutathione Sepharose, incubated with purified 3.4 µM Tsr2 or 4 µM Tsr2:eS26 in PBSKMT with competing E. coli lysates for 1 hr at 4°C; Coomassie Blue staining or Western; both purified
T1 sequence: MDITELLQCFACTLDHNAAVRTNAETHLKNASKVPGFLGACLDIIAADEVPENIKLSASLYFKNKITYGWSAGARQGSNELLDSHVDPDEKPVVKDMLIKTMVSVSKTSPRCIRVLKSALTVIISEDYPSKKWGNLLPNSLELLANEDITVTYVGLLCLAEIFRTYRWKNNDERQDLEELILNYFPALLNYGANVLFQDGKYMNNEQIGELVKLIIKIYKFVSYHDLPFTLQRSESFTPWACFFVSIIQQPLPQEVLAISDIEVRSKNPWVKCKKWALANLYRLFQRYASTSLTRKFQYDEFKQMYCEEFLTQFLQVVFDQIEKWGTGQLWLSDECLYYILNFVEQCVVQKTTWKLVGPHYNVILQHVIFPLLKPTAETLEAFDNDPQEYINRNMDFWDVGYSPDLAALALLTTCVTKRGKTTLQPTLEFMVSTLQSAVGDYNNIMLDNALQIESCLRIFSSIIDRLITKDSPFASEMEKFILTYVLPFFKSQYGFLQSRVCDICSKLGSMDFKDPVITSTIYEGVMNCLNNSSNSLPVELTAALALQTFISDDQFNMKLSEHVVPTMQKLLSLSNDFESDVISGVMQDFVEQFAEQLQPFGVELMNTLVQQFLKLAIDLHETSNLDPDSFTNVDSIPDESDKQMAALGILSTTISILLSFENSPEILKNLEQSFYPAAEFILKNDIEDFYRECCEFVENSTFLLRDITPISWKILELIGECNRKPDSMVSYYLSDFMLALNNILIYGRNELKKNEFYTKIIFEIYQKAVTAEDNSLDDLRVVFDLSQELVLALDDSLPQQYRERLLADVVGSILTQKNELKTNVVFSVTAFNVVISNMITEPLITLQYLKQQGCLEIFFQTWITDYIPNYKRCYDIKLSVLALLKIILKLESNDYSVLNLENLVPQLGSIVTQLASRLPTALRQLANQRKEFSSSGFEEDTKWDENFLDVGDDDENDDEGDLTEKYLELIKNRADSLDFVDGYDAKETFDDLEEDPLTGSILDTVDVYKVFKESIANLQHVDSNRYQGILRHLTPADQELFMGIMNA

[2] = biological target: T2, GST-Kap123 (S. cerevisiae) (UniProt P40069); test: as above
T2 sequence: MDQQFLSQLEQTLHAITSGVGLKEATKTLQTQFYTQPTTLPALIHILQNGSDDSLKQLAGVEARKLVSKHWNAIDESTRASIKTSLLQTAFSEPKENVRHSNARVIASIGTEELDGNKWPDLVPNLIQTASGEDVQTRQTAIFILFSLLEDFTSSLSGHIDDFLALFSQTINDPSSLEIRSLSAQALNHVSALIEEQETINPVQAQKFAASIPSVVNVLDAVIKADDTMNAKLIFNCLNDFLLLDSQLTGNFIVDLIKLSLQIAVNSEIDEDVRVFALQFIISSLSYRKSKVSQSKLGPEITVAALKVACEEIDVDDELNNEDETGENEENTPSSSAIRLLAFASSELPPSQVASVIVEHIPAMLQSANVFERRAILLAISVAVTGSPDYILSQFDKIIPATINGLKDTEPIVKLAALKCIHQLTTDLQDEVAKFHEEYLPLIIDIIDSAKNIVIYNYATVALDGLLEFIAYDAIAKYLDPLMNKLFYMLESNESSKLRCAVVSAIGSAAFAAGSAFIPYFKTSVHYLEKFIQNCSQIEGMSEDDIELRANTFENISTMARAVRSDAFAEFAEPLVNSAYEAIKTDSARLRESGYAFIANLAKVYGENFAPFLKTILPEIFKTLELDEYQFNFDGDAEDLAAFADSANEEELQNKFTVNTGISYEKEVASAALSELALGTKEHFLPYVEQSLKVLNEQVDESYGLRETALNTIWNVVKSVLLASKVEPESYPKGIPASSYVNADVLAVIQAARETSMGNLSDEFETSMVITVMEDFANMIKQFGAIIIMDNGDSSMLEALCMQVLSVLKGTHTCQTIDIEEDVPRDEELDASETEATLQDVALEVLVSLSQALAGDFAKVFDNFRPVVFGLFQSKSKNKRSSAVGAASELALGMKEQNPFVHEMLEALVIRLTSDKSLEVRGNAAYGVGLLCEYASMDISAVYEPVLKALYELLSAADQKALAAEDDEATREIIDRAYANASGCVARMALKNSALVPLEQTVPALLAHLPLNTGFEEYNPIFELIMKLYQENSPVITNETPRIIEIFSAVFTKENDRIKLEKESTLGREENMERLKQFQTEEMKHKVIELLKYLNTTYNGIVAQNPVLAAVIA

binding [1]: no binding (tested: 3.4 µM Tsr2)
binding [2]: no binding (tested: 3.4 µM Tsr2)
B1: Tsr2, purified recombinant (protein, UniProt Q06672 1-205)
chain: MSTQYIDETAFVQAEQGKTNLMFSDEKQQARFELGVSMVIYKWDALDVAVENSWGGPDSAEKRDWITGIVVDLFKNEKVVDAALIEETLLYAMIDEFETNVEDDSALPIAVEVINIYNDCFNLNYNKVEKLYLEWQEKQRTKKSKRVVHIEGDDDEDDEDVEDYDDEDEDEEMDEVVPDLVSSKPEPIVDEDGFELVQPKGRRKH
